Measured values reported in PMC5344696.

Molecular target: T1, _(FLAG)EME1 (human) (UniProt Q96AY2)
T1 sequence: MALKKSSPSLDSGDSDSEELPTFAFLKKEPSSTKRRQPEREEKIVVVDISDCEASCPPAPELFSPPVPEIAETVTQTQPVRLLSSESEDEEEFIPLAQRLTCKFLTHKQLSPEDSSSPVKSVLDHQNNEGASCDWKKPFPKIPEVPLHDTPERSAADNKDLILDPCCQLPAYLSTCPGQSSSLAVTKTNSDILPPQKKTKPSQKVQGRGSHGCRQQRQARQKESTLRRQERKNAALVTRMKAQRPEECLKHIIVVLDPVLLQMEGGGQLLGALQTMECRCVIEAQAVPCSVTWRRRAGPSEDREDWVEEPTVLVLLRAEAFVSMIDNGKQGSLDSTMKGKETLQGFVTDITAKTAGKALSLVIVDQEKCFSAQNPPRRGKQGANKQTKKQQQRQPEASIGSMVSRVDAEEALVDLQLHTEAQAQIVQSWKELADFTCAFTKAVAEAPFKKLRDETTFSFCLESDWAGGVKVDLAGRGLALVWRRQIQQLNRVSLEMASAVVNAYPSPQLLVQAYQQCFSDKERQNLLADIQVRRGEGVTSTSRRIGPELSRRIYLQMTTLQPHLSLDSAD
Experiment: affinity co-purification; from Hi5 cells infected with baculovirus; anti-FLAG M2 resin, HiTRAP SP HP, HiTRAP Q HP

With MUS81^Δ86 (human) (domain or fragment) the binding was “binds”.

Results are given in words; binding and its absence hold for the method and conditions named. Binding seen in cells or lysates may run through a third protein. Binding can be weak; no strength is given. Tags and fused reporters may be left off the sequences shown.
